PubChem BioAssay AID1259425 – University of Nebraska Medical Center | 2018
The whole screen tested about 14,000 reagents; this is an unselected part. Not all columns of the deposit are shown. The record does not give: the time to read-out.

- Aim: 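Seek colon cancer weak points whose silencing resembles KSR1 loss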 (primary screen)
- System: HCT116 human colon cancer cells
- Reagents: siRNA pool against human genes, 50 nM siRNA
- Read-out: 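mRNA of six signature genes measured together by branched-DNA assay after 50 nM siRNA pool, blank removed, divided by geometric mean of two housekeeping genes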
- Scale: BNIP3L mRNA: higher = more BNIP3L transcript after knockdown

no.	target gene	BNIP3L mRNA, set 1
1	AFG3L1P (AFG3 like matrix AAA peptidase subunit 1, pseudogene)	0.0731
2	MCM8	0.0779
3	INA (internexin neuronal intermediate filament protein alpha)	0.196
4	PPARGC1A (PPARG coactivator 1 alpha)	0.106
5	GLI2 (GLI family zinc finger 2)	0.106
6	XPO4 (exportin 4)	0.151
7	HNRNPL (heterogeneous nuclear ribonucleoprotein L)	0.227
8	SPRY1 (sprouty RTK signaling antagonist 1)	0.204
9	CTTNBP2 (cortactin binding protein 2)	0.124
10	AURKB (aurora kinase B)	0.243
11	TRPM3	0.126
12	ZXDC (ZXD family zinc finger C)	0.105
13	CYP21A2 (cytochrome P450 family 21 subfamily A member 2)	0.0594
14	RAI1 (retinoic acid induced 1)	0.0696
15	PDE3B (phosphodiesterase 3B)	0.102
16	LEF1 (lymphoid enhancer binding factor 1)	0.195
17	DSG1 (desmoglein 1)	0.0809
18	PHTF2 (putative homeodomain transcription factor 2)	0.0994
19	ERN1 (endoplasmic reticulum to nucleus signaling 1)	0.304
20	IFNA21 (interferon alpha 21)	0.23
21	TRPV3	0.149
22	CARMIL1 (capping protein regulator and myosin 1 linker 1)	0.0807
23	DUOX2 (dual oxidase 2)	0.163
24	MMP23A (matrix metallopeptidase 23A (pseudogene))	0.14
25	FAM169A (family with sequence similarity 169 member A)	0.168
26	MRPL58 (mitochondrial ribosomal protein L58)	0.0477
27	TRIM24 (tripartite motif containing 24)	0.154
28	NLRC4 (NLR family CARD domain containing 4)	0.241
29	RECQL (RecQ like helicase)	0.0809
30	SCFD1 (sec1 family domain containing 1)	0.056
31	AKAP19 (A-kinase anchoring protein 19)	0.439
32	ARIH2 (ariadne RBR E3 ubiquitin protein ligase 2)	0.1
33	KCTD17 (potassium channel tetramerization domain containing 17)	0.0961
34	RHOT1 (ras homolog family member T1)	0.0893

An excerpt from the list above, as a working copy:
no.	target gene	BNIP3L mRNA, set 1
18	PHTF2 (putative homeodomain transcription factor 2)	0.0994
19	ERN1 (endoplasmic reticulum to nucleus signaling 1)	0.304
20	IFNA21 (interferon alpha 21)	0.23
21	TRPV3	0.149
22	CARMIL1 (capping protein regulator and myosin 1 linker 1)	0.0807
23	DUOX2 (dual oxidase 2)	0.163
